The data set relates to fibrin gel constructs. The data set can be described thus: Stretch length at breaking tension. Details: species or system ovine.

aprotinin: the breaking length (altered pulsation (1 hour per 12 hours), 20 μg/ml aprotinin, 2 wks) came to 14.88±0.69 mm; the breaking length (non-pulsed, 10 μg/ml aprotinin, 14 days) turned out to be 14.23±1.66 mm; the breaking length (non-pulsed, 20 μg/ml aprotinin, 1 wk) was 14.95±3.65 mm; the breaking length (non-pulsed, 20 μg/ml aprotinin, 3 wk) was 12.70±1.30 mm; the breaking length (non-pulsed, 20 μg/ml aprotinin, 4 wk) was 10.87±0.96 mm; the breaking length (non-pulsed, 20 μg/ml aprotinin, 8 wk) turned out to be 11.70±0.81 mm. In addition, the breaking length reads like this: (non-pulsed, 20 μg/ml aprotinin, 14 days (2 wk)) 14.00±2.05 mm; (non-pulsed, 200 μg/ml aprotinin, 14 days) 13.05±2.26 mm; (pulsed, 10 μg/ml aprotinin, 14 days) 11.44±1.19 mm; (pulsed, 20 μg/ml aprotinin, 1 wk) 16.25±4.35 mm; (pulsed, 20 μg/ml aprotinin, 3 wk) 15.85±1.75 mm; (pulsed, 20 μg/ml aprotinin, 4 wk) 12.77±1.57 mm. In addition, the breaking length (pulsed, 20 μg/ml aprotinin, 8 wk) was 12.90±1.15 mm; the breaking length (pulsed, 20 μg/ml aprotinin, 14 days (2 wk)) was found to be 13.45±2.76 mm; the breaking length (pulsed, 200 μg/ml aprotinin, 14 days) is listed as 17.98±0.51 mm.

For the origin of these results see patent US20040115176A1, “Fibrin-based tissue-engineered vasculature” (priority 2002, published 2004).
